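Viability assay of Plasmodium falciparum sporozoites; the read-out is not stated. The concentration is filed as 10 mM, unlikely as a test dose, so the dose is not known. The record gives no direction; compounds that gave an IC50 in retests scored well above the rest, so higher reads as lower viability. Strong results were mostly tested again. Size under these conditions: about 34,000 compounds, about 280 of them at 50% or above in at least one test.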

Values are the deposited “Percent Effect”, in %. How 0% and 100% were set is not recorded. Most values in the screen are low, and negative values occur. This is an unselected part of the compounds tested. Two or more numbers in one place are separate tests of the same structure; such repeats can differ widely.

compound	Percent Effect
O=C(O)C(F)(F)F.[H][C@@]12CCN(C(=O)c3cscn3)[C@@]1([H])CCN2CC1CCOCC1	7.626
Cc1cccc(NC(=O)N2CCC3(CC(=O)N(c4ccsc4)C3)C2)c1 (stereo not drawn)	-1.444
CCc1c(C(=O)N2CCOC(C)(C)C2)cnn1-c1ccccn1	7.996
CCOc1cccc(C(C(=O)O)N(C)Cc2cc(C)no2)c1 (stereo not drawn)	8.91
Cc1nc(C)n(CCNC2CCN(c3ncnc4c(C)csc34)CC2)n1	6.228
Cc1cnn(CC2CCCN2C(=O)c2cccc(CC#N)c2)c1 (stereo not drawn)	-13.24
CSCCC(Nc1nc(C)cc(C)n1)C(=O)NC1CCCC1 (stereo not drawn)	-9.615
CC(C)(C)NC(=O)NC(=O)CN1C=Nc2ccccc2S1(=O)=O	-2.244
COCCCNc1c(C#N)c2c(c3nncn13)CN(C)CC2.Cl	-8.992
[H][C@@]12CN(Cc3cccnc3)C[C@]1([H])OCCN2Cc1c(C)noc1C	-4.332
COc1cccc(CN2CCCC3(CCN(C(=O)[C@H]4CCCO4)C3)C2)c1 (stereo partly drawn)	-3.375
O=C1CC2(CCCC2)CC(=O)N1Cc1nccs1	-18.69
O=c1cc(C2CCNCC2)nc(CCc2ccccn2)[nH]1	-2.599
Cn1ncc2ccc(C3CCCN(Cc4cccs4)C3)nc21 (stereo not drawn)	14.24
Cn1ncc2cnn(CC(O)COCc3ccccc3Cl)c2c1=O (stereo not drawn)	-0.9143
O=C(O)C(F)(F)F.O=C(O)C(F)(F)F.O=C1Nc2ccccc2C12CCN(Cc1ccccn1)CC2	4.991
CC(C)n1[nH]c(=O)c2c1NC(=O)CC2c1cccnc1 (stereo not drawn)	13.83
Cc1nn(C)c(C)c1NC(=O)CN1CCCC1c1noc(C2CC2)n1 (stereo not drawn)	-3.188
Cc1noc(C2CCN(C(=O)CCNS(C)(=O)=O)CC2)n1	0.3221
CC(C)N(C)C(=O)C1=NOC2(CCN(C(=O)c3ccccn3)C2)C1 (stereo not drawn)	7.016
CC(C)N1CCC(c2nccnc2Nc2cnccn2)CC1	2.11
CNC(=O)c1cccc(CN2CCN(c3ccncc3)CC2)c1	-14.19
CC(=O)N1CCC(Cc2cnc(-c3c(C)n[nH]c3C)cn2)CC1	13.89
CCCN1CCN(C(=O)c2cnn(-c3ccccc3F)c2)CC1	-26.47
Cc1cc(C)cc(CNC(C)c2c(C)nn(C)c2C)c1 (stereo not drawn)	-5.789
CCc1[nH]c2c(CNc3nccc(N)n3)cc(C)cc2c1C	1.385
Cc1cc(C(=O)NCc2ccc(N3CCCC(C(N)=O)C3)cc2)on1 (stereo not drawn)	10.63
COc1ccccc1N1CCN(C(=O)CCc2nncn2C)C(C)C1 (stereo not drawn)	14.62
COc1cc(Cl)ccc1C(=O)N1CCCC(n2nc(C)nc2C)C1 (stereo not drawn)	6.408
O=C(CCn1cccn1)N1CCC(c2nnc(-c3ccccn3)o2)CC1	4.433
[H][C@@]12CN(C(=O)CC3CC3)C[C@]1([H])C(=O)N(CC1CC1)C2	1.882
Cn1nc(COCC2CC2)c2c1CCN(Cc1cccs1)C2.O=C(O)C(F)(F)F	10.33
COc1cc(CNC2CCc3nc(C)nn3C2)cc2c1OCO2 (stereo not drawn)	9.376
CCc1ccc(CNC(=O)c2ccc(N3CCOC3=O)cc2)s1	12.79
O=C(O)CC(O)(CC(=O)O)C(=O)O.[H][C@@]12CC[C@@](O)(c3ccccn3)[C@]1([H])CN(Cc1ccccn1)C2	8.728
CC(=O)N(Cc1noc(C)n1)C1CCN(Cc2ccccn2)C1 (stereo not drawn)	1.958
CCc1n[nH]c(C2CN(C(=O)c3ncoc3CC)CCO2)n1 (stereo not drawn)	-2.489
CCc1nnc(Nc2cccc(C3CCN(CC4CC4)CC3)n2)s1	11.26
CCc1noc(CN(C)C(=O)C2COc3ccccc3C2)n1 (stereo not drawn)	-3.07
Cc1ccc(-n2nnc(CC(=O)N3CCN(C4CC4)CC3)c2C)cc1	-21.31 & -17.09
CNc1nc2c(s1)C(c1c(F)cccc1Cl)CC(=O)N2 (stereo not drawn)	-4.622
Cc1cc(SCC(=O)O)nc2nn(CC(F)F)c(C)c12	6.603
Cc1cc(CN(C)C(=O)NC2CCCC2)no1	-2.23
CCN(CC)C(=O)Cn1ccc2cc(NC(=O)NC3CC3)ccc21	-11.75
COC(=O)c1ccc(N2CCN(Cc3csc(C)n3)CC2)nn1	-8.452
Cc1cc(C)n(CC2CCCCN2CCC(=O)Nc2cc(C)on2)n1 (stereo not drawn)	9.044
Cn1ccnc1CN1CCN(CC(O)c2ccccc2)CC1 (stereo not drawn)	-201.2
[H][C@@]12C[C@@H](O)C[C@]1([H])CN(C(=O)c1cc(C3CCCCC3)no1)C2	-3.708
O=C(O)C(F)(F)F.O=C(O)C(F)(F)F.[H][C@]12CCC[C@@]1(COc1ccccn1)CN(c1ncc(F)cn1)C2	-12.06
NC(=O)c1cnn2c1NCC(CNCCCc1ccccc1)C2 (stereo not drawn)	0.0331
CCCn1ccnc1CN1CCN(C2CCOCC2)CC(C(N)=O)C1 (stereo not drawn)	14.05
[H][C@]12CCN(C(=O)c3ccccc3C)C[C@@]1([H])OCCN(c1ncccn1)C2	3.179
Cc1ccccc1CN1CCN(Cc2nccn2C)CC1	-6.56
O=C(N1CCCC1)N1CCN(CC2CC2)c2ncccc2C1	-13.49
Cc1ccccc1CN(C)C(=O)c1cc(C2CCCN2C)ccn1 (stereo not drawn)	8.974
CC(=O)N1CCCC1c1cncc(Oc2ccc(F)cc2)n1 (stereo not drawn)	-7.916
Cc1nn(C)c(N(C)C)c1CNCC(O)COc1ccc(F)cc1 (stereo not drawn)	-5.785
CCOC(=O)CNC(=O)NCc1cccn1Cc1ccc(F)cc1	-8.992
CCN(Cc1ccncc1)CC1(C)Cc2c(N)nc(N)nc2O1 (stereo not drawn)	-1.075
CC(NC(=O)NCCNc1cnccn1)c1cccs1 (stereo not drawn)	11.12
COc1ccnc(N2CCN(C(=O)N3CCOCC3)CC2)n1	-2.065
CC(=O)NCC(=O)N1CCC2(CC1)NC(=O)CC2c1cnn(C)c1 (stereo not drawn)	11.64
CCn1ccnc1CN1CCN(CC(O)c2ccc(OC)cc2)CC1 (stereo not drawn)	3.33
Cc1nn(C)c2c(N3CCN(C(=O)NC4CCCCC4)CC3)ncnc12	-0.4386
O=C(NCC1CC1)C1CN(C(=O)c2cccs2)CC12CCOCC2 (stereo not drawn)	-11.36
O=c1[nH]c(-c2ccncc2)ncc1-c1ccnc(N2CCOCC2)n1	4.996
CCC(=O)N1CCCC(c2cc(Nc3ncccn3)nc(C)n2)C1 (stereo not drawn)	-33.53
Cc1cc(C(=O)N2CCC[C@]3(C[C@H](OCC4CC4)CO3)C2)no1	-0.7732
CN(C)C1CCCN(C(=O)CCc2csc(N)n2)CC1 (stereo not drawn)	-16.21
O=C(O)C(F)(F)F.[H][C@@]12CN(Cc3ccoc3)CCO[C@]1([H])CN(C(=O)c1sccc1C)C2	-7.543
CN1CCN(CC2CC2)C(=O)C12CCN(C(=O)CC(F)(F)F)CC2.O=C(O)C(F)(F)F	6.764
O=C(NCc1ccc(Br)c(F)c1)Nc1cn[nH]c1	5.013

The first 5 entries again:

{"compound": "O=C(O)C(F)(F)F.[H][C@@]12CCN(C(=O)c3cscn3)[C@@]1([H])CCN2CC1CCOCC1", "Percent Effect": 7.626}
{"compound": "Cc1cccc(NC(=O)N2CCC3(CC(=O)N(c4ccsc4)C3)C2)c1", "stereo": "stereo not drawn", "Percent Effect": -1.444}
{"compound": "CCc1c(C(=O)N2CCOC(C)(C)C2)cnn1-c1ccccn1", "Percent Effect": 7.996}
{"compound": "CCOc1cccc(C(C(=O)O)N(C)Cc2cc(C)no2)c1", "stereo": "stereo not drawn", "Percent Effect": 8.91}
{"compound": "Cc1nc(C)n(CCNC2CCN(c3ncnc4c(C)csc34)CC2)n1", "Percent Effect": 6.228}

The values are deposited in ChEMBL (CHEMBL3988442, “University of Dundee, Small-Polar-MMV Screening Library” (2021)).